The target of assay [1] is T1, Swi6^3FLAG (S. cerevisiae) (UniProt P09959).
T1 sequence: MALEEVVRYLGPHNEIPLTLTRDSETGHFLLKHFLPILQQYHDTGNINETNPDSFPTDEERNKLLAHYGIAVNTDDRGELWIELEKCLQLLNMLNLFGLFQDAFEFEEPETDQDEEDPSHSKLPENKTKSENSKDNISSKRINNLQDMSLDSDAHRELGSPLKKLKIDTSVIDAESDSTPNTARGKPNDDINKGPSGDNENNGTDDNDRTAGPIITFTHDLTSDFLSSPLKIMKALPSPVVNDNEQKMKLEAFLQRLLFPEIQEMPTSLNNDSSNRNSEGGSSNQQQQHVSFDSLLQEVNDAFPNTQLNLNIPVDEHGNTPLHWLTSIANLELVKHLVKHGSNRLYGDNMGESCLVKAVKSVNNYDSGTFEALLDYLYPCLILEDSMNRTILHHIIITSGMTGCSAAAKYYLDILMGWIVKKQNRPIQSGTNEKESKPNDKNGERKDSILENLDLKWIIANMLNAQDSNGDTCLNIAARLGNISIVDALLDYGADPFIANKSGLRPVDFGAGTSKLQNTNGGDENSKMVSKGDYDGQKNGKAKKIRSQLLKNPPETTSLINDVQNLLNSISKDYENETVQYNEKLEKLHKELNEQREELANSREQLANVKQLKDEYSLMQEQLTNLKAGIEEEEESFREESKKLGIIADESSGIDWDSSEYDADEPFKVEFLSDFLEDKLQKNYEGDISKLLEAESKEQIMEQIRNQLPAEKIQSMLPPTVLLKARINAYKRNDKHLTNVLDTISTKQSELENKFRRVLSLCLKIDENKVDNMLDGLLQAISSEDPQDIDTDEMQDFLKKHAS
Briefly: co-IP; Swi4^3FLAG or Swi6^3FLAG captured on anti-FLAG M2 resin from extracts of cells treated with 200 nM rapamycin (2 h; 3 h in the replicate); all alleles from endogenous promoters; blots with anti-FLAG and anti-MYC.

In assay [2] the target is T2, Swi4^3FLAG (S. cerevisiae) (UniProt P25302).
T2 sequence: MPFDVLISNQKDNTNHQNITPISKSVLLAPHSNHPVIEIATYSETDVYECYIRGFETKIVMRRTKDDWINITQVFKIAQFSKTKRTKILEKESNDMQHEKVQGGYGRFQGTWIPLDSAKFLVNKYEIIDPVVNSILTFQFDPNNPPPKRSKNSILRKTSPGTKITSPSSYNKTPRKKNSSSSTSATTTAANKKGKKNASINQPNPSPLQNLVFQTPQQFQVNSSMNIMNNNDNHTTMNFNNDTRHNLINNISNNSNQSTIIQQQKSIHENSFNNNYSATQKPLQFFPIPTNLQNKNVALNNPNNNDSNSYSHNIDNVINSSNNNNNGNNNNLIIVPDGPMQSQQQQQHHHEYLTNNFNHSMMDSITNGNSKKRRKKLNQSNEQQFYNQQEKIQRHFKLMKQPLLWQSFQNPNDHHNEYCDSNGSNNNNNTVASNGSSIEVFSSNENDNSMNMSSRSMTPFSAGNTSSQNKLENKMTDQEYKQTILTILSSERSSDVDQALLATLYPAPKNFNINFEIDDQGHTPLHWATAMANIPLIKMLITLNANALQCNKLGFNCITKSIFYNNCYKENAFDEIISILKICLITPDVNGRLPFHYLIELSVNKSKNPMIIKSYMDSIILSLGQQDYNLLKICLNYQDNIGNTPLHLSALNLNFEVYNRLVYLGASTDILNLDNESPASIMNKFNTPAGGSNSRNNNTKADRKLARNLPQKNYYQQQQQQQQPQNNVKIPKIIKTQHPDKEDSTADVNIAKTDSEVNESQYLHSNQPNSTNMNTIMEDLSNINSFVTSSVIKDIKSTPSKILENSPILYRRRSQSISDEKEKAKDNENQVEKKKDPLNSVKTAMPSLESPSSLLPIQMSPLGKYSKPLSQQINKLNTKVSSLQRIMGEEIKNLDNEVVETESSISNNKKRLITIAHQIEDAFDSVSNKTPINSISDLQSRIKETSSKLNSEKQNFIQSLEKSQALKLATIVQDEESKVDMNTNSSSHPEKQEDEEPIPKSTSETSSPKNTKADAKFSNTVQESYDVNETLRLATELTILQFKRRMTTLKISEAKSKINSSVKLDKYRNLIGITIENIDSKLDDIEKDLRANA
Described as above.

Assay [3] has as its target T3, ^FLAGMbp1 (S. cerevisiae) (UniProt P39678).
T3 sequence: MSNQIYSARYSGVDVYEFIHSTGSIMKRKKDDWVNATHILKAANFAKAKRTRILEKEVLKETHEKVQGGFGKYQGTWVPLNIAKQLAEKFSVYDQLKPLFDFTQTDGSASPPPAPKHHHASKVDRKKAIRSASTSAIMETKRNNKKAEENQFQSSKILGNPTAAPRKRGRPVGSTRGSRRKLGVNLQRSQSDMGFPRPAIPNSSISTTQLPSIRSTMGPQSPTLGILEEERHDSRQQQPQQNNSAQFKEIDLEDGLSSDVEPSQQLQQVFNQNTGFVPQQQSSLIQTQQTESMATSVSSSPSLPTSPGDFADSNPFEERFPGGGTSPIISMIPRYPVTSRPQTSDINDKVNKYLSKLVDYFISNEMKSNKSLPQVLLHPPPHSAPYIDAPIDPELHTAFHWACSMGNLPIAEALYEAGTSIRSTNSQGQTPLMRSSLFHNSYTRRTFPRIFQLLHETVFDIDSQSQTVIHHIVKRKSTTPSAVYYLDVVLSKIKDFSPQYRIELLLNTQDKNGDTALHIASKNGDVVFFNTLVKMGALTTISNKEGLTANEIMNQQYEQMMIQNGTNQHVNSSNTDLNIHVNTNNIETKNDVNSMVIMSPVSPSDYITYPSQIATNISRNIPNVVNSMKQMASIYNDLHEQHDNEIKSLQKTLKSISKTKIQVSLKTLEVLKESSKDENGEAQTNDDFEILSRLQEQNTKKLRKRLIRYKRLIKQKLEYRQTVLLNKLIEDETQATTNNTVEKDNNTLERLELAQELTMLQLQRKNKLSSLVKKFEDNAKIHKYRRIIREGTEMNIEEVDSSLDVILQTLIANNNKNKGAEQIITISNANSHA
Briefly: co-purification on anti-FLAG resin; complexes purified on anti-FLAG M2 resin from insect cells co-infected with baculovirus constructs, eluted with excess FLAG peptide.

Assay [4] addresses T4, ^FLAGSwi4 (S. cerevisiae) (UniProt P25302).
T4 sequence: T2 sequence
The assay is described as above.

Results are given in words; binding and its absence hold for the method and conditions named. For some of these results: Binding seen in cells or lysates may run through a third protein. Some results given as binding are weak or reduced against the parent protein; the word gives no strength. Sequences can lack the tags named with a protein.

B1: Whi5^13MYC (protein, UniProt Q12416 1-295)
chain: MSLRTPKRSRTSDEQEQEQEQEQVQNPDTHVNNEHQQRPGPTTLLSTPVRLKNGFGTPSPPSPPGITKSITKSRRRPSTTSLQGIFMSPVNKRRVGITAHGRVYDHNDDGHESESEDDENEEENENQKKYDGHVSMPLLPPTTPKSRRSEVFLSPSPRLRSPPTAARRSTGERPIREISHTLRTRLNYALVKLQNGWTDKTLPELETELAPAVQTPPRRYHNRFPDSADAGTSAHTAFLQALGGHPPREEATAVETLMLLSSPTKKQQHRPVPATSAGEPTDETEPESDTEVETS
In the case of B1, the binding entry in assay [1] and in assay [2] was “binds” in each case.

B2: Swi6 (recombinant, insect cells) (protein, UniProt P09959 1-803)
chain: T1 sequence
B2: the binding entry in assay [3] and in assay [4] was “binds” in each case.

Source of the values: paper PMC8893695, “The microprotein Nrs1 rewires the G1/S transcriptional machinery during nitrogen limitation in budding yeast” (PLoS Biology, 2022).
